Assay results as given in paper PMC5624629.
These are yes or no findings as the source states them, for the method shown.

Amino acid sequences for entries named in this document (tags omitted). A change or cut given only in a name is not applied to a line headed by its entry.
UniProt P02454: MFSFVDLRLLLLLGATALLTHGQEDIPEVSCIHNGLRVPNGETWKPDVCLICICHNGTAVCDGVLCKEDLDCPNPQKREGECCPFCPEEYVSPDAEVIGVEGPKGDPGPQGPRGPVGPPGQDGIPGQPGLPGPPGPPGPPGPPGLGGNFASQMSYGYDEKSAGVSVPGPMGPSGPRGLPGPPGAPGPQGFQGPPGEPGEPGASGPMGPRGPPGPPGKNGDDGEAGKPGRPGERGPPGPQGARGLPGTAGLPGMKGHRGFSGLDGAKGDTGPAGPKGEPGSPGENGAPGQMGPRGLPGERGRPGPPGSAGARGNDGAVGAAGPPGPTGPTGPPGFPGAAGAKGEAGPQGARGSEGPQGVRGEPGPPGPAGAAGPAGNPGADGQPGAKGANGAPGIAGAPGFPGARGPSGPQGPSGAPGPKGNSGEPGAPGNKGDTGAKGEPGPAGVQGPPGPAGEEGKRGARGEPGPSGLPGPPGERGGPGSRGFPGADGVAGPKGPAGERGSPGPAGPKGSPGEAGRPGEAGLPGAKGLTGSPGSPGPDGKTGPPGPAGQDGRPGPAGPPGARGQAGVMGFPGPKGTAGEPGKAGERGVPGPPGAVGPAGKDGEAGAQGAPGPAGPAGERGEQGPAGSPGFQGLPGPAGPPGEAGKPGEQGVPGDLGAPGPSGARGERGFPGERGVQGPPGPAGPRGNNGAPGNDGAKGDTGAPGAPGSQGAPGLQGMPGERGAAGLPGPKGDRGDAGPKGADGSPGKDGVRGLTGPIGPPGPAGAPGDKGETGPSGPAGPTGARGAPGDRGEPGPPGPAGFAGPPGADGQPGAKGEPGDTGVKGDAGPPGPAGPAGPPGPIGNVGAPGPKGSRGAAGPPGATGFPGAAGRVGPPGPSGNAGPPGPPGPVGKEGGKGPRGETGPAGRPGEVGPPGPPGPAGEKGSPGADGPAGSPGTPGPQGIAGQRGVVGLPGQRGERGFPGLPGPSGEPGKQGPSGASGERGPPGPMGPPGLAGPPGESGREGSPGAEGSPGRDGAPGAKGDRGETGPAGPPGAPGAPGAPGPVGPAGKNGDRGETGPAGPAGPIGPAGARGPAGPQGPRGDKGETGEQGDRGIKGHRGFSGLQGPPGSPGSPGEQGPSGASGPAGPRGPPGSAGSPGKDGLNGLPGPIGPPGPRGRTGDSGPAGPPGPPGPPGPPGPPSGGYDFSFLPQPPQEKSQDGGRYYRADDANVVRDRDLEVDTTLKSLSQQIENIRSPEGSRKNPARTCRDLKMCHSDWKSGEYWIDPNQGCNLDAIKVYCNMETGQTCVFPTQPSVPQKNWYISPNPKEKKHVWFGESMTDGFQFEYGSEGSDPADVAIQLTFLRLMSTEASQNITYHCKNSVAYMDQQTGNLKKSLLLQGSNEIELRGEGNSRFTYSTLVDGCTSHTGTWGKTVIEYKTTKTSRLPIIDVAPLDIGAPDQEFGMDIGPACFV

Molecular target: T1, R1R2 peptide
T1 sequence (peptide): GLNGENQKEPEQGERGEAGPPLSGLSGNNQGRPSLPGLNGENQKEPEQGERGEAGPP
Test: ELISA; R1R2 coated at 20 ug/mL on 96-well plates at 4°C overnight, blocked with 1% BSA; FN or type I collagen (10 ug/mL) added for 2 h at room temperature; detected with rabbit anti-FN or anti-type I collagen antibodies and HRP secondary antibodies, absorbance at 405 nm; both purified

Substance: rat type I collagen (from UniProt P02454 152-1207; P02466 86-1125) (complex)
- binding: no binding (tested: 10 μg/mL)
